Data as given in PubChem BioAssay AID1224830 (NIAID, 2016).
Shown is an unselected part of about 18,000 deposited reagents. About 2,900 of all reagents (16%) count as active. 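Calls are made per well; low scores hint the gene aids the LPS response, high scores that it dampens it.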 Repeated entries: four replicate wells of each siRNA pool.

Assay: 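Regulators of TLR4 signalling towards TNF-alpha in macrophage-like cells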 (primary screen)
Cells: human THP-1 monocytic leukaemia cells, TNF dual-luciferase reporter clone, PMA-differentiated to macrophage-like cells
Reagents: siRNA pool against human genes, 50 nM
Duration: LPS for 4 h, given about 3 days after siRNA transfection
Challenge: bacterial LPS (TLR4 ligand), 10 ng/ml
Measurement: 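TNF firefly reporter luminescence divided by renilla, normalised to the plate median, then turned into a robust z-score for each replicate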
Reading the numbers: TNF reporter robust z-score: higher = stronger TNF reporter response to LPS
Call rule: 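a well is active when its z-score exceeds 2.8 or falls below -1.5; control wells carry no call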

Gene	TNF reporter robust z-score	activity call
ZNF334 (GeneID 55713)	-0.18	inactive
ZNF334 (GeneID 55713)	0.13	inactive
ZNF334 (GeneID 55713)	0.55	inactive
ZNF334 (GeneID 55713)	-0.64	inactive
ARRDC2 (GeneID 27106)	-1.84	active
ARRDC2 (GeneID 27106)	-1.7	active
ARRDC2 (GeneID 27106)	-1.75	active
ARRDC2 (GeneID 27106)	-1.36	inactive
TMEM74 (GeneID 157753)	-1.88	active
TMEM74 (GeneID 157753)	-1.21	inactive
TMEM74 (GeneID 157753)	-1.35	inactive
TMEM74 (GeneID 157753)	-1.26	inactive
BSND (GeneID 7809)	0.44	inactive
BSND (GeneID 7809)	-0.5	inactive
BSND (GeneID 7809)	0.46	inactive
BSND (GeneID 7809)	0.89	inactive
DNAH1 (GeneID 25981)	0.97	inactive
DNAH1 (GeneID 25981)	1.77	inactive
DNAH1 (GeneID 25981)	1.03	inactive
DNAH1 (GeneID 25981)	0.61	inactive
KLF2 (GeneID 10365)	-1.82	active
KLF2 (GeneID 10365)	-0.9	inactive
KLF2 (GeneID 10365)	-0.88	inactive
KLF2 (GeneID 10365)	-0.83	inactive
PALM (GeneID 5064)	0.5	inactive
PALM (GeneID 5064)	0.7	inactive
PALM (GeneID 5064)	0.76	inactive
PALM (GeneID 5064)	0.82	inactive
EPHB4 (GeneID 2050)	-0.19	inactive
EPHB4 (GeneID 2050)	-1.05	inactive
EPHB4 (GeneID 2050)	0.35	inactive
EPHB4 (GeneID 2050)	-0.91	inactive
DCTPP1 (GeneID 79077)	0	inactive
DCTPP1 (GeneID 79077)	-1.28	inactive
DCTPP1 (GeneID 79077)	-0.99	inactive
DCTPP1 (GeneID 79077)	0.28	inactive
OR11H12 (GeneID 440153)	-0.46	inactive
OR11H12 (GeneID 440153)	0.04	inactive
OR11H12 (GeneID 440153)	-0.32	inactive
OR11H12 (GeneID 440153)	-0.17	inactive
DHDDS (GeneID 79947)	-0.73	inactive
DHDDS (GeneID 79947)	-0.19	inactive
DHDDS (GeneID 79947)	-0.4	inactive
DHDDS (GeneID 79947)	-0.07	inactive
KDM8 (GeneID 79831)	0.5	inactive
KDM8 (GeneID 79831)	2.99	active
KDM8 (GeneID 79831)	2.42	inactive
KDM8 (GeneID 79831)	1.54	inactive

Entries listed so far marked active (6):
Gene	TNF reporter robust z-score	activity call
ARRDC2 (GeneID 27106)	-1.84	active
ARRDC2 (GeneID 27106)	-1.7	active
ARRDC2 (GeneID 27106)	-1.75	active
TMEM74 (GeneID 157753)	-1.88	active
KLF2 (GeneID 10365)	-1.82	active
KDM8 (GeneID 79831)	2.99	active
